Data as given in PubChem BioAssay AID1508588 (Peter MacCallum Cancer Centre, 2020).

Assay: 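Which gene losses make BRAF-mutant melanoma cells more responsive to vemurafenib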 (primary screen)
Cells: human WM266.4 melanoma cells (BRAF V600 mutant)
Knock-down reagent: siRNA pool against human genes, 40 nM
Duration: 96 h from transfection to read-out
Challenge: vemurafenib 300 nM (about IC25), added 48 h after transfection, for 48 h; comparison arm got DMSO vehicle only
Detection: 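Cell gain (DAPI nuclei at end minus before drug, mean of two replicates) and medium lactate by absorbance per cell, both as ratio to non-targeting siRNA, also grouped into fold-change classes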
Direction: cell gain with vemurafenib: higher = more cell gain than with non-targeting siRNA; lactate per cell with vemurafenib: higher = more lactate made per cell
Hit rule: 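Enhancement is called by pairing each knock-down's vehicle-arm and drug-arm fold-change classes for viability or glycolysis; which class combinations qualify is not given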
Calls: active = enhances vemurafenib effect; inactive = no enhancement seen
The deposit covers about 18,000 reagents; shown is an unselected part. In the full data, 790 (4.4%) are marked active. 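Calls rest on a combination of fold-change classes in drug and vehicle arms, not all shown here.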 A number with no mark means an inactive call.

Which result is listed for DDN (dendrin)?
cell gain with vemurafenib: 0.73; lactate per cell with vemurafenib: 0.94

With NEIL3 (nei like DNA glycosylase 3), what was measured?
cell gain with vemurafenib: 0.7 (active); lactate per cell with vemurafenib: 0.48

What did the screen give for TOMM40L (translocase of outer mitochondrial membrane 40 like)?
cell gain with vemurafenib: 1.03; lactate per cell with vemurafenib: 0.8

With MAN2B2 (mannosidase alpha class 2B member 2), what does the deposit list?
cell gain with vemurafenib: 0.7; lactate per cell with vemurafenib: 0.82

With HOGA1 (4-hydroxy-2-oxoglutarate aldolase 1), what does the deposit list?
cell gain with vemurafenib: 0.55; lactate per cell with vemurafenib: 1.51

With ZNF831 (zinc finger protein 831), what does the deposit list?
cell gain with vemurafenib: 0.54; lactate per cell with vemurafenib: 0.21

For UQCRH (ubiquinol-cytochrome c reductase hinge protein), how do the results read?
cell gain with vemurafenib: 0.72; lactate per cell with vemurafenib: 0.94

With PGAP1 (post-GPI attachment to proteins inositol deacylase 1), what does the deposit list?
cell gain with vemurafenib: 0.42; lactate per cell with vemurafenib: 1.58

What did the screen give for TIA1 (TIA1 cytotoxic granule associated RNA binding protein)?
cell gain with vemurafenib: 0.3; lactate per cell with vemurafenib: 1.8

What is on record for LLGL2 (LLGL scribble cell polarity complex component 2)?
cell gain with vemurafenib: 0.55; lactate per cell with vemurafenib: 1.28

What did the screen give for THEMIS2 (thymocyte selection associated family member 2)?
cell gain with vemurafenib: 1.27; lactate per cell with vemurafenib: 0.72

Which result is listed for PSMD4 (proteasome 26S subunit ubiquitin receptor, non-ATPase 4)?
cell gain with vemurafenib: 0.33; lactate per cell with vemurafenib: 1.57

What is on record for RPL5 (ribosomal protein L5)?
cell gain with vemurafenib: -0.13; lactate per cell with vemurafenib: 2.4

What did the screen give for ZDHHC11 (zDHHC palmitoyltransferase 11)?
cell gain with vemurafenib: 1.2; lactate per cell with vemurafenib: 0.55

What did the screen give for CD79A (CD79a molecule)?
cell gain with vemurafenib: 0.43; lactate per cell with vemurafenib: 1.19

With SMO (smoothened, frizzled class receptor), what was measured?
cell gain with vemurafenib: 0.83; lactate per cell with vemurafenib: 1.1

With CHST12 (carbohydrate sulfotransferase 12), how do the results read?
cell gain with vemurafenib: 0.91; lactate per cell with vemurafenib: 1.19

With BTN3A3 (butyrophilin subfamily 3 member A3), how do the results read?
cell gain with vemurafenib: 0.41; lactate per cell with vemurafenib: 0.98

Which result is listed for SMU1 (SMU1 DNA replication regulator and spliceosomal factor)?
cell gain with vemurafenib: -0.16; lactate per cell with vemurafenib: 2.6

Which result is listed for AKAP8 (A-kinase anchoring protein 8)?
cell gain with vemurafenib: 0.18; lactate per cell with vemurafenib: 1.36

What did the screen give for RPL35 (ribosomal protein L35)?
cell gain with vemurafenib: 0.04; lactate per cell with vemurafenib: 1.68

For OR2H1 (olfactory receptor family 2 subfamily H member 1), how do the results read?
cell gain with vemurafenib: 0.6; lactate per cell with vemurafenib: 0.55

What did the screen give for NEUROG1 (neurogenin 1)?
cell gain with vemurafenib: 0.62; lactate per cell with vemurafenib: 0.66

With PRR4 (proline rich 4), what does the deposit list?
cell gain with vemurafenib: 0.53; lactate per cell with vemurafenib: 0.97

What is on record for NIBAN2 (niban apoptosis regulator 2)?
cell gain with vemurafenib: 0.59; lactate per cell with vemurafenib: 0.56

What is on record for PACRGL (parkin coregulated like)?
cell gain with vemurafenib: 0.6; lactate per cell with vemurafenib: 0.7

What is on record for DRAXIN (dorsal inhibitory axon guidance protein)?
cell gain with vemurafenib: 0.48; lactate per cell with vemurafenib: 1.21

With HOXB4 (homeobox B4), how do the results read?
cell gain with vemurafenib: 0.94; lactate per cell with vemurafenib: 1.01

With ANKMY2 (ankyrin repeat and MYND domain containing 2), what was measured?
cell gain with vemurafenib: 1; lactate per cell with vemurafenib: 1.08

With NPC1L1 (NPC1 like intracellular cholesterol transporter 1), what was measured?
cell gain with vemurafenib: 0.56; lactate per cell with vemurafenib: 1.03

For DELE1 (DAP3 binding cell death enhancer 1), what does the deposit list?
cell gain with vemurafenib: 0.64; lactate per cell with vemurafenib: 0.66

With PRPF38A (pre-mRNA processing factor 38A), what does the deposit list?
cell gain with vemurafenib: 0.22; lactate per cell with vemurafenib: 1.19

For VBP1 (VHL binding protein 1), how do the results read?
cell gain with vemurafenib: 0.99; lactate per cell with vemurafenib: 0.53

For VENTX (VENT homeobox), what was measured?
cell gain with vemurafenib: 0.89; lactate per cell with vemurafenib: 1.05

What is on record for MRPS34 (mitochondrial ribosomal protein S34)?
cell gain with vemurafenib: 0.96; lactate per cell with vemurafenib: 0.83

With PRELP (proline and arginine rich end leucine rich repeat protein), what was measured?
cell gain with vemurafenib: 0.05 (active); lactate per cell with vemurafenib: 0.34

Which result is listed for EFCAB14 (EF-hand calcium binding domain 14)?
cell gain with vemurafenib: 0.11; lactate per cell with vemurafenib: 1.28

What did the screen give for LTBR (lymphotoxin beta receptor)?
cell gain with vemurafenib: 0.15; lactate per cell with vemurafenib: 0.63

With AMOTL2 (angiomotin like 2), how do the results read?
cell gain with vemurafenib: 0.65; lactate per cell with vemurafenib: 0.98

How did the screen score MED18 (mediator complex subunit 18)?
cell gain with vemurafenib: 0.48; lactate per cell with vemurafenib: 1.4

Active calls, among the entries above:
NEIL3 (nei like DNA glycosylase 3) — cell gain with vemurafenib = 0.7 (active); lactate per cell with vemurafenib = 0.48
PRELP (proline and arginine rich end leucine rich repeat protein) — cell gain with vemurafenib = 0.05 (active); lactate per cell with vemurafenib = 0.34
